# Reference: patent US4487708A (priority 1981, dated 1984)
# At least one compound was matched to its structure with a doubt left.
# Columns and labels:
# [1] = room temperature oxygen scavenging test (flask with dissolved oxygen probe); details: Table 11, hydroquinone 93 ppm, 23-25 °C
# [2] = saturated solution, 10.0 g hydroquinone (6.3 + 3.7 g) in 89.5 g water
# Method: Volumes of mu-amines required to effect dissolution were recorded and converted to weights via density.
smiles,measurement,setting,value
CCN(CC)CCO [Diethylaminoethanol],% O2 Removed At 60 Seconds,"[1]; stock mu-amine 1.5 / hydroquinone 10.0 wt. %, HQ:mu-amine 6.67:1",95%
same,% O2 Removed At 60 Seconds,"[1]; stock mu-amine 30.0 / hydroquinone 10.0 wt. %, HQ:mu-amine 1:3",95%
same,% O2 Removed At 60 Seconds,"[1]; stock mu-amine 90.0 / hydroquinone 10.0 wt. %, HQ:mu-amine 1:9",95%
same,% O2 Removed At 60 Seconds,"[1]; stock mu-amine 99.0 / hydroquinone 1.0 wt. %, HQ:mu-amine 1:99",95%
same,mu-amine required to effect dissolution,[2],2.4 grams
